Results reported in patent US7033832.
Results are given in words; binding and its absence hold for the method and conditions named. Binding seen in cells or lysates may run through a third protein. Some entries that bind do so weakly or less than the wild type.

By UniProt entry, the sequences of proteins in these tests, tags left out. Residues count along the entry.
UniProt P35222, residues 2-781: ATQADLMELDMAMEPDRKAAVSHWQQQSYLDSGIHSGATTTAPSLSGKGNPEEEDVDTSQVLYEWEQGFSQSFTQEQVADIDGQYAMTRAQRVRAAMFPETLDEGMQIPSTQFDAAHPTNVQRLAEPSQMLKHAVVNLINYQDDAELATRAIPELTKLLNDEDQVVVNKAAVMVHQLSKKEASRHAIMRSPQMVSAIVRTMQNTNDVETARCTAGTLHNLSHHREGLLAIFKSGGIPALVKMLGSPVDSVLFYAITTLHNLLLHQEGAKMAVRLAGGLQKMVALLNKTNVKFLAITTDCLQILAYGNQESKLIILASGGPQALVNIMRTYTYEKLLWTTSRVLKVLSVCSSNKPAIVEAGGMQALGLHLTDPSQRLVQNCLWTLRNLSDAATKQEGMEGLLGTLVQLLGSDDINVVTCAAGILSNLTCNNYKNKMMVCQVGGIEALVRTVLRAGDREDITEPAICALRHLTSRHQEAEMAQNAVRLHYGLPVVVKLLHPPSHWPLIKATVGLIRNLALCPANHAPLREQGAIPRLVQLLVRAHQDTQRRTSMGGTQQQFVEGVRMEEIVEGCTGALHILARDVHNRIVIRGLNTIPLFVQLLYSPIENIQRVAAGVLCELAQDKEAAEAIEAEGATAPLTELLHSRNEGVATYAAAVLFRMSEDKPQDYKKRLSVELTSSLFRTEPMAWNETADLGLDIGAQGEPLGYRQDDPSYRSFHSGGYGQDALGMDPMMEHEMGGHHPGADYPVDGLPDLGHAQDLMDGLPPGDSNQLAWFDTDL

T1: VE-cadherin (vascular endothelial cadherin) of human endothelial cells (human) (UniProt P33151)
T1 sequence (looked up): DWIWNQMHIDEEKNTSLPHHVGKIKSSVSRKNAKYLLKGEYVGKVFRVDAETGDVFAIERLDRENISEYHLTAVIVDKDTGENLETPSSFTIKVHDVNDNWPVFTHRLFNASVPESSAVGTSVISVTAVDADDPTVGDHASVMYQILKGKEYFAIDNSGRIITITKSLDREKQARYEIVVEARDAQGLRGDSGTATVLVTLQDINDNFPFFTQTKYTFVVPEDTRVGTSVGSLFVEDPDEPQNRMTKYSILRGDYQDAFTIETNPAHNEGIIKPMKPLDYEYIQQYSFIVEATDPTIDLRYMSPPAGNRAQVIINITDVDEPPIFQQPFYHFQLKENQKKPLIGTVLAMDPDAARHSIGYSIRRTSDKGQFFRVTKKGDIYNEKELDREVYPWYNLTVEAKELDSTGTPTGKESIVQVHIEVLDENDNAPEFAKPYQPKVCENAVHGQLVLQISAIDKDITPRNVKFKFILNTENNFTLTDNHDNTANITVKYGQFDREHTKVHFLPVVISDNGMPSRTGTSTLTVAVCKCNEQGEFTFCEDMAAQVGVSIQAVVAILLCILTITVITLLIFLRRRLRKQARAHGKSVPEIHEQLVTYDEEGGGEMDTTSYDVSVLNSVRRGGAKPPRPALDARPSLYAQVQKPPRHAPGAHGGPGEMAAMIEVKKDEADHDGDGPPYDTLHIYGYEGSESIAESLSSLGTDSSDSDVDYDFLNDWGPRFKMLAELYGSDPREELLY


Assays:
[1] = target: T1, VE-cadherin (vascular endothelial cadherin) of human endothelial cells (human); test: co-immunoprecipitation with anti VE-cadherin antibody, immunoblot for catenins
[2] = target: T1, VE-cadherin (vascular endothelial cadherin) of human endothelial cells (human); test: co-immunoprecipitation with anti VE-cadherin antibody, immunoblot for catenins (FIG. 8)

| binding [1] | binding [2] | Molecule |
| --- | --- | --- |
| binds | – | β catenin (94 kD) of human endothelial cells (from UniProt P35222 2-781) |
| binds | binds | γ catenin (85 kD) of human endothelial cells (protein, UniProt P14923 1-745, looked up) MEVMNLMEQPIKVTEWQQTYTYDSGIHSGANTCVPSVSSKGIMEEDEACGRQYTLKKTTTYTQGVPPSQGDLEYQMSTTARAKRVREAMCPGVSGEDSSLLLATQVEGQATNLQRLAEPSQLLKSAIVHLINYQDDAELATRALPELTKLLNDEDPVVVTKAAMIVNQLSKKEASRRALMGSPQLVAAVVRTMQNTSDLDTARCTTSILHNLSHHREGLLAIFKSGGIPALVRMLSSPVESVLFYAITTLHNLLLYQEGAKMAVRLADGLQKMVPLLNKNNPKFLAITTDCLQLLAYGNQESKLIILANGGPQALVQIMRNYSYEKLLWTTSRVLKVLSVCPSNKPAIVEAGGMQALGKHLTSNSPRLVQNCLWTLRNLSDVATKQEGLESVLKILVNQLSVDDVNVLTCATGTLSNLTCNNSKNKTLVTQNSGVEALIHAILRAGDKDDITEPAVCALRHLTSRHPEAEMAQNSVRLNYGIPAIVKLLNQPNQWPLVKATIGLIRNLALCPANHAPLQEAAVIPRLVQLLVKAHQDAQRHVAAGTQQPYTDGVRMEEIVEGCTGALHILARDPMNRMEIFRLNTIPLFVQLLYSSVENIQRVAAGVLCELAQDKEAADAIDAEGASAPLMELLHSRNEGTATYAAAVLFRISEDKNPDYRKRVSVELTNSLFKHDPAAWEAAQSMIPINEPYGDDMDATYRPMYSSDVPLDPLEMHMDMDGDYPIDTYSDGLRPPYPTADHMLA |
